# Several values for one entry are separate records, joined by “and”; a condition that tells them apart may be missing. Identical values can stand only once. The inconclusive results got no clear call from the source; some entries with a clear call stand among them for comparison. For part of these data: Potencies beside an inconclusive call are fits to weak or partial responses and may not hold up. Activity calls are given as the source filed them. Unless noted, calls follow the shape of the full dose curve.
# Amino acid sequences for entries named in this document (tags omitted).
# UniProt P14416, whole entry, looked up: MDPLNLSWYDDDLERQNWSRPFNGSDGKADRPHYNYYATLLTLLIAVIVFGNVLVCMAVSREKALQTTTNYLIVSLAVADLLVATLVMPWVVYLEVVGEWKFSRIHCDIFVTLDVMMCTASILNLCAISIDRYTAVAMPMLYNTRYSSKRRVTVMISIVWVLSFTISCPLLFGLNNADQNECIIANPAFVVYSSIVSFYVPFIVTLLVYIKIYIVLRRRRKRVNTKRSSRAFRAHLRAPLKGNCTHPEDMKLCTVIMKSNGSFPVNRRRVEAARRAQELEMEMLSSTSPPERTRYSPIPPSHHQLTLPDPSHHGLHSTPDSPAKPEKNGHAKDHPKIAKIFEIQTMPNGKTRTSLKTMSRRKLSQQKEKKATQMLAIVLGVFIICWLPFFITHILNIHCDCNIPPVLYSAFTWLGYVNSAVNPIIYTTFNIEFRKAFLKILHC
# Key:
# [1] = p53 small molecule agonists, cell-based qHTS assay: qHTS cell viability counter screen (AID 1963581); also: nearly all actives have a fitted effect of over 45% in size; also: potency is read from the fitted curve at half-maximal effect
# How it was run: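 Multiplexed with the reporter read, a CellTiter-Glo step (30 min, room temperature) gauges ATP-based viability of HCT-116 p53RE-bla cells after 16 h compound incubation at 37 C.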
# [2] = cAMP Responsive Elements (CRE) small molecule antagonists, cell-based qHTS assay (AID 1963591; active = well fitted inhibition curve with a large enough effect in the signal ratio in the repeat runs, not every such curve was filed as active; inconclusive = weak or mixed curves, or effect the other way; the % refers to the signal ratio; also: potency is read from the fitted curve at half-maximal effect; as to activity change, negative = inhibition: % is scaled to controls: 0 for no effect and ±100 for the full control effect); settings: CRE-bla HEK293T, beta-lactamase FRET ratio
# How it was run: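 Fluorescence intensity from cleaved LiveBLAzer B/G substrate (2 h, room temperature) quantified CRE-bla activity in HEK 293T cells exposed 3 h to compound with 0.25 uM final NKH477.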
# [3] = biological target: Beta-2 adrenergic receptor (Homo sapiens) (UniProt P07550); test: Adrenergic beta2 receptor (ADRB2) small molecule agonists, cell-based qHTS assay (AID 1963593); settings: CHO-ADRB2 cells, cAMP HTRF, 30 min; also: potency is read from the fitted curve at half-maximal effect;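 as to activation: CHO cells stably overexpressing human ADRB2; % is scaled to controls: 0 for no effect and ±100 for the full control effect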
# How it was run: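 CHO cells stably over-expressing ADRB2 were plated overnight at 37C, then dosed with compounds plus a stimulation mix containing 100uM IBMX and 25uM Ro-20-1724 for 0.5hr at room temperature. cAMP was measured by HTRF competition, 1hr.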
# [4] = biological target: D(2) dopamine receptor (Homo sapiens) (UniProt P14416); test: Dopamine D2 receptor (DRD2) small molecule antagonists, cell-based qHTS assay (AID 1963595; active = well fitted inhibition curve with a large enough effect in the signal ratio in the repeat runs, with a control signal flat; inconclusive = weak or mixed curves, or effect the other way; the % refers to the signal ratio; also: % is scaled to controls: 0 for no effect and ±100 for the full control effect); settings: HEK293-DRD2 cAMP HTRF antagonist mode; activity change, negative = inhibition: at 92.4 µM (top of the series) unless noted
# How it was run: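 HEK293 cells stably expressing DRD2, preincubated with 0.1 mM Ro20-1724 and compounds 10 min, were stimulated with 200 nM NKH477 plus 12 nM quinpirole for 30 min at room temperature; cAMP measured by HTRF (665/620 nm).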
# [5] = biological target: Beta-2 adrenergic receptor (Homo sapiens) (UniProt P07550); test: Adrenergic beta2 receptor (ADRB2) small molecule antagonists, cell-based qHTS assay (AID 1963592); settings: CHO-ADRB2 cells, isoproterenol-stimulated cAMP HTRF ratio, 0.5 h; activity change, negative = inhibition: at 92.4 µM (top of the series) unless noted; also: nearly all actives have a fitted effect of over 50% in size; also: potency is read from the fitted curve at half-maximal effect; as to activity change, negative = inhibition: % is scaled to controls: 0 for no effect and ±100 for the full control effect
# How it was run: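 Assay format: CHO-ADRB2 cells, 18-20hr seeding at 37C/5% CO2, then compound plus 1nM isoproterenol agonist mix for 0.5hr RT. Homogeneous time-resolved fluorescence cAMP detection after 1hr, expressed as 665/615 nm ratio.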
# [6] = biological target: D(2) dopamine receptor (Homo sapiens) (UniProt P14416); test: Dopamine D2 receptor (DRD2) small molecule agonists, cell-based qHTS assay (AID 1963594); settings: HEK293-DRD2 cAMP HTRF, agonist mode, 30 min; activation: at 92.4 µM (top of the series) unless noted; also: potency is read from the fitted curve at half-maximal effect; nearly all actives have a fitted effect of over 35% in size
# How it was run: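 cAMP accumulation in DRD2-HEK293 cells measured by HTRF after 1 h detection; compounds added 10 min before NKH477 (200nM […]) forskolin-analogue stimulation, 30 min at room temperature, with Ro20-1724 present at 0.1 mM final.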
# [7] = activity change, negative = inhibition: at 92.4 µM (top of the series) unless noted
# [8] = activation: at 92.4 µM (top of the series) unless noted
smiles,measurement,setting,value
CN1CC(=O)N/C1=N/C(=O)Nc1cccc(Cl)c1,Potency,[1],"inconclusive: 0.199 µM [cytotoxic, single point]"
same,"activity change, negative = inhibition",[2]; [7],inconclusive: 10% [at 42.4 µM]
CCO[Si](CC)(OCC)OCC,Potency,[1],"inconclusive: 0.0257 µM [rising, full curve, poor fit]"
same,Potency,[2]; [7],inactive
same,Potency,[3]; [8],inactive
same,Potency,[4],inactive
CN(Cc1cnc2nc(N)nc(N)c2n1)c1ccc(C(=O)N[C@@H](CCC(=O)O)C(=O)O)cc1,Potency,[1],"inconclusive: 182 nM [cytotoxic, full curve] and inconclusive: 199 nM [cytotoxic, full curve]"
same,Potency,[2]; [7],"inconclusive: 77 µM [activator, single point]"
same,Potency,[3]; [8],inactive
O=C(O)c1ccccc1S,Potency,[1],inactive
same,Potency,[2]; [7],inactive
same,activation,[3]; [8],inconclusive: 3.12% [at 42.5 µM]
Oc1c(I)cc(I)c2cccnc12,Potency,[1],inactive
same,Potency,[5],inactive
same,activation,[3]; [8],inconclusive: -15.3% [at 42.5 µM]
CN(C)CCOC(c1ccccc1)c1ccccc1 (tested in a mixture with another compound),Potency,[1],"inconclusive: 2.91 µM [rising, full curve]"
same,"activity change, negative = inhibition",[5],inconclusive: -26.8%
COc1c2occc2cc2ccc(=O)oc12,Potency,[1],"inconclusive: 0.41 µM [rising, partial curve, poor fit]"
same,Potency,[2]; [7],"inconclusive: 40.3 µM [activator, partial curve, poor fit] and inconclusive: 3.76 µM [activator, partial curve, poor fit]"
same,activation,[3]; [8],inconclusive: -80.6% and inconclusive: -3.07%
same,"activity change, negative = inhibition",[4],inconclusive: -11.6%
Oc1ccc2c(c1)OCO2,Potency,[1],"inconclusive: 4.54 µM [cytotoxic, single point]"
same,Potency,[5],inactive
same,activation,[3]; [8],inconclusive: -18.6%
C=CCc1cc(S(=O)(=O)c2ccc(O)c(CC=C)c2)ccc1O,Potency,[1],"inconclusive: 18.2 µM [rising, partial curve, poor fit]"
same,"activity change, negative = inhibition",[2]; [7],inconclusive: -37.4%
same,Potency,[3]; [8],"inconclusive: 0.0217 µM [inhibitor, single point]"
OCC1CCCO1 (stereo unspecified),Potency,[1],"inconclusive: 1.82 µM [rising, single point]"
same,"activity change, negative = inhibition",[2]; [7],inconclusive: 0.338%
same,"activity change, negative = inhibition",[2]; at 92.4 µM (top of the series),inactive: -3.65%
same,activation,[3]; [8],inconclusive: -24.4% and inconclusive: 10.8%
CCCNCC(O)COc1ccccc1C(=O)CCc1ccccc1 (stereo unspecified),Potency,[1],"inconclusive: 15.8 µM [rising, partial curve, poor fit]"
same,Potency,[5],active: 0.841 µM
same,Potency,[3]; [8],"inconclusive: 0.298 µM [inhibitor, full curve]"
Oc1ccc(Nc2ccccc2)cc1,Potency,[1],"inconclusive: 16.2 µM [rising, single point]"
same,Potency,[2]; [7],"inconclusive: 77 µM [activator, partial curve, poor fit]"
same,Potency,[5],"inconclusive: 19.3 µM [falling, partial curve, poor fit]"
same,activation,[3]; [8],inconclusive: -26.9%
O=C(O)COCCN1CCN(C(c2ccccc2)c2ccc(Cl)cc2)CC1 (stereo unspecified),Potency,[1],inactive
same,"activity change, negative = inhibition",[2]; [7],inconclusive: 23.1%
same,Potency,[3]; [8],inactive
same,Potency,[6],"inconclusive: 7.5 µM [falling, single point]"
CC(C)(C)NC(=O)[C@@H]1CN(Cc2cccnc2)CCN1C[C@@H](O)C[C@@H](Cc1ccccc1)C(=O)N[C@H]1c2ccccc2C[C@H]1O,Potency,[1],inactive
same,Potency,[2]; [7],"inconclusive: 40.5 µM [activator, partial curve]"
same,"activity change, negative = inhibition",[2]; [7],inconclusive: 4.04% [at 42.4 µM]
same,Potency,[3]; [8],inactive
CCCCCCCCCCCCCC(=O)OC(C)C,Potency,[1],inactive
same,Potency,[2]; [7],inactive
same,activation,[3]; [8],inconclusive: 21.5%
CC1=NN(c2ccccc2)C(=O)C1,Potency,[1],"inconclusive: 51.3 µM [rising, single point]"
same,"activity change, negative = inhibition",[2]; [7],inconclusive: -1.23% [at 42.4 µM]
same,activation,[3]; at 42.5 µM (top of the series),inconclusive: 14.5%
same,activation,[3]; at 92.4 µM (top of the series),inconclusive: -54.5%
CC(C)(C)C(=O)OCOC(=O)C1N2C(=O)CC2S(=O)(=O)C1(C)C (stereo unspecified),Potency,[1],inactive
same,Potency,[2]; [7],active: 0.0119 µM
CC12CCC(CC1)C(C)(C)O2,Potency,[1],"inconclusive: 18.2 µM [cytotoxic, partial curve, poor fit]"
same,"activity change, negative = inhibition",[2]; [7],inconclusive: 1.3% [at 42.4 µM]
same,Potency,[3]; [8],"inconclusive: 13.5 µM [inhibitor, partial curve, poor fit]"
same,activation,[3]; [8],inconclusive: 19.6% [at 42.5 µM]
same,activation,[3]; at 92.4 µM (top of the series),inactive: -37.1%
CC(C)C[C@H](NC(=O)CNC(=O)[C@H](Cc1ccc(O)cc1)NC(=O)[C@H](CO)NC(=O)[C@H](Cc1c[nH]c2ccccc12)NC(=O)[C@H](Cc1cnc[nH]1)NC(=O)[C@@H]1CCC(=O)N1)C(=O)N[C@@H](CCCN=C(N)N)C(=O)N1CCC[C@H]1C(=O)NCC(N)=O (stereo in doubt),Potency,[1],inactive
same,Potency,[5],inactive
CCCCCCCCCCCC(=O)N(CC)CC,Potency,[1],"inconclusive: 0.324 µM [rising, partial curve, poor fit]"
same,Potency,[2]; [7],"inconclusive: 32 µM [fluorescent, single point]"
same,activation,[3]; [8],inconclusive: 2.55%
same,Potency,[4],inactive

# — PubChem BioAssay (Tox21)
